Data source: PubChem BioAssay AID1053208 (Peter MacCallum Cancer Centre, 2014)
Assay: 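Find knock-downs that sensitise mouse osteosarcoma cells to doxorubicin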 (primary screen). Cells: mouse osteosarcoma cells, early-passage culture from an engineered mouse model of fibroblastic bone tumour. Reagent: siRNA pool against mouse genes, 40 nM. Timing: about 120 h (48 h before drug, then 72 h with drug). Challenge: doxorubicin 100 nM for 72 h, roughly 30-40% inhibitory dose. Measured: 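Luminescent ATP signal taken as viability with or without 100 nM doxorubicin for 72 h; mean of two wells set against non-targeting siRNA and turned into robust z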. Scale: viability z-score with doxorubicin: higher = more viable cells under doxorubicin; viability z-score without drug: higher = more viable cells with knock-down alone. Rule for the call: 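a pool counts as active when its viability z-score with doxorubicin is -2 or below and its z-score without drug lies between -2 and 2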.
The deposit covers about 17,000 reagents; this is an unselected part. 788 of all reagents (4.7%) count as active. 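Calls rest on z-score classes alone; an extra cut-off of viability at most 70% of control was not applied to them.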 Unmarked entries are inactive. Reagents against one gene are numbered here. Further read-outs or replicates are left out here. No sequences are given here.

With knock-down of Camkv, the record shows combined z-score class no change with or without drug; viability z-score with doxorubicin 0; viability z-score without drug -0.51. After knock-down of Tfrc, the screen gave combined z-score class no change with or without drug; viability z-score with doxorubicin -1.35; viability z-score without drug 0.17. Depletion of Tdrd6 came out at: combined z-score class no change with or without drug; viability z-score with doxorubicin 0.22; viability z-score without drug 0.34. For Sin3a, the entry reads combined z-score class low cell count without drug only; viability z-score with doxorubicin -1.57; viability z-score without drug -2.19. Epb41l4b scored combined z-score class no change with or without drug; viability z-score with doxorubicin -0.9; viability z-score without drug -1.01. Knock-down of A930018P22Rik came out at: combined z-score class no change with or without drug; viability z-score with doxorubicin -1.01; viability z-score without drug 0.

Knock-down of Mfsd6 resulted in: combined z-score class no change with or without drug; viability z-score with doxorubicin 0.11; viability z-score without drug -0.84. 1110056A04RIK showed combined z-score class no change with or without drug; viability z-score with doxorubicin -1.35; viability z-score without drug -1.18. Knock-down of Trpc5 came out at: combined z-score class no change with or without drug; viability z-score with doxorubicin 0; viability z-score without drug 0.84. Knock-down of Igsf8 resulted in: combined z-score class no change with or without drug; viability z-score with doxorubicin -0.56; viability z-score without drug 0.84. After knock-down of L3mbtl4 #1, the screen gave combined z-score class no change with or without drug; viability z-score with doxorubicin 1.01; viability z-score without drug 0.51. Depletion of L3mbtl4 #2 resulted in: combined z-score class no change with or without drug; viability z-score with doxorubicin -0.11; viability z-score without drug -1.01.

With knock-down of Eif1b, the screen gave combined z-score class no change with or without drug; viability z-score with doxorubicin 0.45; viability z-score without drug 0. Silencing of Heyl gave: combined z-score class no change with or without drug; viability z-score with doxorubicin 1.01; viability z-score without drug 0.84. For Naalad2 the deposit lists combined z-score class no change with or without drug; viability z-score with doxorubicin 0.45; viability z-score without drug 0.51. Silencing of 9430019C24Rik gave: combined z-score class no change with or without drug; viability z-score with doxorubicin -0.9; viability z-score without drug -0.17. Against G6pc3, the values are combined z-score class no change with or without drug; viability z-score with doxorubicin -0.22; viability z-score without drug -0.51. With knock-down of S1pr3, the record shows combined z-score class no change with or without drug; viability z-score with doxorubicin -0.67; viability z-score without drug 0.17.

Knock-down of Lamp2 gave: combined z-score class no change with or without drug; viability z-score with doxorubicin 0.56; viability z-score without drug -0.84. Silencing of Zfp111 resulted in: combined z-score class no change with or without drug; viability z-score with doxorubicin -1.57; viability z-score without drug -0.84. Depletion of Trim35 resulted in: combined z-score class high cell count without drug only; viability z-score with doxorubicin 1.35; viability z-score without drug 3.04. After knock-down of Tra2a #1, the screen gave combined z-score class no change with or without drug; viability z-score with doxorubicin 1.35; viability z-score without drug -0.17. For Tra2a #2 the deposit lists combined z-score class no change with or without drug; viability z-score with doxorubicin -0.67; viability z-score without drug 0.

Part of the list above in another layout:
target,reagent,combined z-score class,viability z-score with doxorubicin,viability z-score without drug
S1pr3,1,no change with or without drug,-0.67,0.17
Lamp2,1,no change with or without drug,0.56,-0.84
Zfp111,1,no change with or without drug,-1.57,-0.84
Trim35,1,high cell count without drug only,1.35,3.04
Tra2a,1,no change with or without drug,1.35,-0.17

Next entries follow.
Pfn2 gave combined z-score class no change with or without drug; viability z-score with doxorubicin 1.69; viability z-score without drug 1.85. With knock-down of Grb7 the results were combined z-score class no change with or without drug; viability z-score with doxorubicin 0.11; viability z-score without drug 0. After knock-down of Prss21, the record shows combined z-score class no change with or without drug; viability z-score with doxorubicin 0.56; viability z-score without drug -0.17. Pnn scored combined z-score class no change with or without drug; viability z-score with doxorubicin -0.56; viability z-score without drug 0.34. Anapc5 showed combined z-score class no change with or without drug; viability z-score with doxorubicin -1.8; viability z-score without drug -1.85. Depletion of Ptprr resulted in: combined z-score class no change with or without drug; viability z-score with doxorubicin 1.12; viability z-score without drug -0.51.

After knock-down of Ctf1 the results were combined z-score class no change with or without drug; viability z-score with doxorubicin 0.22; viability z-score without drug -1.18. Silencing of Gcdh resulted in: combined z-score class no change with or without drug; viability z-score with doxorubicin 0.56; viability z-score without drug -0.51. Silencing of Cables2 came out at: combined z-score class no change with or without drug; viability z-score with doxorubicin -0.22; viability z-score without drug 0.84. Depletion of Gli2 gave: combined z-score class no change with or without drug; viability z-score with doxorubicin -0.56; viability z-score without drug -0.17. Tcl1b2 scored combined z-score class low cell count with doxorubicin only (active); viability z-score with doxorubicin -3.37; viability z-score without drug -1.01. For Pdc, the entry reads combined z-score class no change with or without drug; viability z-score with doxorubicin -0.67; viability z-score without drug 0.67.

Silencing of Epm2aip1 gave: combined z-score class no change with or without drug; viability z-score with doxorubicin 0; viability z-score without drug -0.51.
